Consider nine molecules from paper PMC4463644.

For this assay, the target named is SNAMA (D. melanogaster (endogenous in 0-6 h embryos)). The assay can be described thus: affinity purification with mass spectrometry; co-immunoprecipitation from 1 mg crude extract of 0-6 h embryos with 15 ug chicken anti-SNAMA DCM antibody, captured on chicken IgY precipitating resin; SDS-PAGE bands absent from the control with pre-adsorbed pre-immune serum identified by LC-MS/MS.

These are yes or no findings as the source states them, for the method shown. Binding seen in cells or lysates may run through a third protein. A yes stands for co-enrichment or nearness to the bait. Other partners may have been found. Where a sequence is shown, tags or fusion partners need not be part of it.

B1: Mind-meld, isoform C (protein, UniProt Q9VXL1 1-1482)
chain: MWINIANLILIIAQLCVFVTSAGEADYTLDDSFWNEESPVGEVERLLKEYRQNQELVRRIGGHYYQIIYPVQLRHHEKMGISTREVSLPKPGQRPRPHDDSGFNRGRTKKHFHRTSLLIKAFNHKFRLDLELNSQLLSPNIQQKHYHVGGYLVDGNRHDIEHCYYHGTVKDYPGASAAFHTCNGVSGVIHIGNETFVIHPFYGGDLSKHPHVIFEARTKANKGCANSGNLDSWRLSRRTKHLSAGVAGVVEEILQAGVGRNKRDVREATKYIETAIIVDKAMFDKRNGSTRAEVIHDAIQVANIADLYFRTLNTRVSVVYIETWGKNQAVIDGSKDISKAISNFNDYTSRNLFQIERDTTQLLTGETFAGGEAGMAVPETVCTPRAVGISVDVNVYEPHLLAGTMAHMIGHNIGMGHDDGREECFCRDWHGCIMAQSIVGQENVQPYKFSECSKKDYIDALRTGHGLCLLNKPNEIELRRNCGNKVVEEDEECDCGTFEECALDQCCDGITCKLKSEAQCASGACCDQCRLRPKDYICRDSNNECDLPEYCDGEIGQCPSDVFKKNGSPCGLSKTGISGYCFQGYCPTLSLQCEAIWGYGGSAADRQCYEQFNSKGSINGHCGRDANEHYIKCEPENVQCGTLQCKDGERQPVNDGIDQLYSRTIISIKGQEFECKATSGQVGSNSYPEHGLVKDGTPCGDNLICLNQTCVSLFPHVDQTKCPANSQGLECSEHGVCTNTNRCFCDMGWGGNDCSSVVLLTTALPTEALPTPENTIKMEKKETPYENYHGSNTVFLVGVLMSVVGFVFITFTLMALCYRRKTTTLKYDPPYSKKPIAKSYGGAATAPNHHSVEEVSLDGSSKLVYANQTGFRDKGIHGRRYTTCGEDDQSHAEKGILKKHGYGLVHGEQLKDKWGDDNQSDNLELITQDGTLASTSGGAAASEVERTLKSLNGYHEDILEALRNAATHRGTGTGNTPVGSGSLSEEMLRKTLQDCNNSQLGYSAEQYKRNIGSKSSSRENICDNAAVHAIILDGSGGGLGGMGLGSSVGAGGGSTSMSGGMPGHGGTMLHHHRSQHQLHQPSTVALQPQQLDDDDAPSTGPLRIRNLEDLIRQLEHHSSRHMSPSGSEDIRMSETEADRHYRLESSAACSESSQGSNQQIPQSQKTATIHASYSRSCRPRSDEESRFTFGGRYRQPASSGRHAPHQSHSPHAFGHHTHHSHAHGHATHGPHSSHHSSHTHLQQEDEGIYETADHHERQVVDARLDCHETPDSESDDFIQAQQQLARWASEDVVSVVVLDQPPSGTMSDSQPYIDVGPISGAIAQQQHPHQQQQQQQQQQHPHQHHGDHHQSSAAAAGSGSGVAAATSVANSSIMALPIVPNGISVSQRDYYPSPPSTETESSGSVIQPPIRRGLQSAAAAAAAADTAALSQHQQQLQLLQLPIYQQHPHQHHHPQQSGDTSSSNNSQSEQIIENGCYPEYKH
B1: the binding result was “binds”.

B2: Ribosome biogenesis protein WDR12 homolog (protein, UniProt Q9VKQ3 1-420)
chain: MDVDNGEGQVQVHLKTKQEHYAVPDVPYAIDGTVTTVELNTFVNALLRQKDGSSDTDFDFLVFDEYLRGRLCDHLREKAISFEDAIEIEYVERFPAPEPQDCLLHDDWVSAVKARGKWILSGCYDNTLNLWTNKGKHILTISGHTAPIKAVDWISLDEETGRFVSTSQDQTAMLWQWNVGSNSVECVSVCKGHERGVDSVSVSPDGLRFATGSWDTMLKVWSAELDDAVEGSSKRMKESGVRTPKITLQGHRESVSAVQWMDATTLLTGSWDHTLKVWDLSLEGIKTEISTNKSIFDASYSKLNRLILTASADKNLRLYDPRTNQGSVVRNTYLGHNAWVQTVMWSTTEEFLFVSGAYDNQNKLWDCRSPKAPLYDLLGHGEKVLDIDWSNPKYIVSGGVDNTVRVFKSRKALAEEAETK
For the molecule B2, the binding entry was “binds”.

B3: Stonewall (protein, UniProt Q24156 1-1037)
chain: MSAASEVNLMLLRSVEKQTALYDRTDENYRKRLPSENAWDMVASEVGESVEKCKRRWRQLRNDYTRWCNADANRRRNGQRRLAYPLADELRFLDRHLNIADDMAADDDRSVSSDKDRDNNRDSEGVDHHAQASLKERASSTSKLVKEVKLASQVRKEKSSQDKRENWENPGDKQRSRKKSAEEKLDDLEESDEPEKVPELDSFLQSDNEDDECMDEEHLDDLEGFDFDLEQSNQEKELTPEKSLEKNNTDSTVSQPEFFVKQTRDPRLLIIGRKNSTSSFAESKASKSISGDPLETAMEDSGDEYGRDGEKRVTGSDTTSPTRRPRRAARASISFAGIRDLPIQKPGQAQRMTRLQRRKSMSLAAVHSVRSSTSPVKMTPVPRSQPINKPPSGPVQITKISHRDDIFPRPAVPSGVVNINQNQLKTQQQQKTLIFPTTDEAIANPHGSGPPQRRSVGRPPKKLPMVQRIVAPETQTKPQSPINTKVLTIGKPTSSVASGNINNIAIKSNVVTSISSSTATTNTITKGTSNNSIKTTENVNVISYSKNSSSTSSSSKATTGASGAVITNIPTTTTAGTSVPVGKSITQLKMTERGTQTGVQNPFSDNYFLEMIKPQMQEMNPRQKMHFKKKVFQALMETFDDATDFPTSKELQHFNINTPSGFEHITDPELRLVRELVSMVSAAKVTLIRPPGEATAIATASRSGIAPEVQRGPRTNMTRQVIQRVYKPGTGQEIAPTSPAGGLDKRLFRLAAMGGKPNGNLSATQEILRKDSVDSNHSVVKVANHAPTGSPKGAAVVAAIRPQGSLINSFFGQGNGPTTAKGAASENIRAMSRRYSVCGSSNPPNAQNASQGSANGSTINSNASAMEASMLKRRLIAAGHGMVPPTQRPRYSAVGASQMTTASQGSSLLVRKSVGCVPAYQKQISPNGGASLLQKTPQIASVQGSAFNDFAQPKPAATASVNGEESSPTSALKRSLVVANTKTSFQDLLQQASQTVQRNKIESSETAATIAADDFSLDNLKREPVDPAEDHNDILGV
Take B3: the binding entry is reported as “binds”.

B4: Heat shock protein 27 (protein, UniProt P02518 1-213)
chain: MSIIPLLHLARELDHDYRTDWGHLLEDDFGFGVHAHDLFHPRRLLLPNTLGLGRRRYSPYERSHGHHNQMSRRASGGPNALLPAVGKDGFQVCMDVSQFKPNELTVKVVDNTVVVEGKHEEREDGHGMIQRHFVRKYTLPKGFDPNEVVSTVSSDGVLTLKAPPPPSKEQAKSERIVQIQQTGPAHLSVKAPAPEAGDGKAENGSGEKMETSK
With B4, the binding entry is given as “binds”.

B5: Voltage-dependent anion-selective channel (protein, UniProt Q94920 1-282)
chain: MAPPSYSDLGKQARDIFSKGYNFGLWKLDLKTKTSSGIEFNTAGHSNQESGKVFGSLETKYKVKDYGLTLTEKWNTDNTLFTEVAVQDQLLEGLKLSLEGNFAPQSGNKNGKFKVAYGHENVKADSDVNIDLKGPLINASAVLGYQGWLAGYQTAFDTQQSKLTTNNFALGYTTKDFVLHTAVNDGQEFSGSIFQRTSDKLDVGVQLSWASGTSNTKFAIGAKYQLDDDASVRAKVNNASQVGLGYQQKLRDGVTLTLSTLVDGKNFNAGGHKIGVGLELEA
Take B5: the binding result is on record as “binds”.

B6: Vitellogenin-2 (protein, UniProt P02844 20-442)
chain: NPQSGNRSGRRSNSLDNVEQPSNWVNPREVEELPNLKEVTLKKLQEMSLEEGATLLDKLYHLSQFNHVFKPDYTPEPSQIRGYIVGERGQKIEFNLNTLVEKVKRQQKFGDDEVTIFIQGLPETNTQVQKATRKLVQAYQQRYNLQPYETTDYSNEEQSQRSSSEEQQTQRRKQNGEQDDTKTGDLIVIQLGNAIEDFEQYATLNIERLGEIIGNRLVELTNTVNVPQEIIHLIGSGPAAHVAGVAGRQFTRQTGHKLRRITALDPTKIYGKPEERLTGLARGDADFVDAIHTSAYGMGTSQRLANVDFFPNGPSTGVPGADNVVEATMRATRYFAESVRPGNERNFPSVAASSYQEYKQNKGYGKRGYMGIATDFDLQGDYILQVNSKSPFGRSTPAQKQTGYHQVHQPWRQSSSNQGSRRQ
As to B6, the binding result is listed as “binds”.

B7: Egalitarian (protein, UniProt Q9W1K4 1-1004)
chain: MESMEYEMARNMTLLFFLERLLDKGEPRTVHDLSCQFGNKEFTKEMRQIAGGSQSGLKKFLAQYPAIFLVDGDYVQVNAYQHHNADDGGCGGKRDYIQEAKDYFKNKMLQYGAAAEVPVRSLLGHRSQASPQVRHISGQHIKEFTDFLMKHTDTFKVTDDYVMLVGCENMTDLPARDRLHLPQSNIDTRGTQQMLDFFAQCIEVKGPLLVDQLFHLLTTNFPQDQWLRMFKTPGDLSSFLKLFADCFHIQANLVTLLQKPKLSDTHIQQAQAQTREQFNALNNNNSASIRKQEPTPGGGGVGGVSSVQQRLQSPALRTNGHTNNNNGSNGSNNNNNNNNSIACPNFKLNAPVSNVMGGQSQGFGQPKSEPSSGFDSYVPMSELKLENLCENNYPSANTCYGPINNSSQQTQQVQTQQQQQPQHATQNPAEQRLNSVNQTLKQRINTLVIRTLAENLEKDKQSLANQQGGPISPHASPVHSIANSSSNQNAGSAANNANSNSNANPNNANHSPSHSYFVGDTWKIKVLQNTTVIANVKQSVFVTDIILKYAAKNESIVVSLDCEGINLGLKGEITLIEIGTTRGEAFLFDVQSCPAMVTDGGLKTVLEHDQVIKVIHDCRNDAANLYLQFGILLRNVFDTQAAHAILQYQESGKQVYKAKYISLNSLCEQYNAPCNPIKDQLKQIYRRDQKFWAKRPLTREMMLYAAGDVLVLIHDQLFGNLARQIKPENRALFSELCTEQILMQIKPNEVKIRKKQRKVSTEVSDLKQKLAQTSKSIVLSNREIRLLRYMDLTEDEKERLKGYYKVAKKLEKMESAGNPSKDQSDSEDEQEPNENDAFPSLDSVPSDNSLSGTFSPRFSSEPPSLTESMQMLEEILQNKSMDRIARIDKLEAILTTATSLPCEQIIASNSMQEQLGSSIATTENLQIIREKSKNIKNCNCQGERSVTPIMRTTDKRVVKLVDAESQTLSTGDVVITKIFFQDEHERAKEAALLSNSPAKRVSPT
In the case of B7, the binding result is “binds”.

B8: Phosphorylated adapter for RNA export (PHAX) (protein, UniProt Q8SYG4 1-479)
chain: MVTLPLSVAQTAALWAKIFSRLAIKKMMELHANDVDLEDGELSESDDDGVYTPLQRPDGAEKVASPLTTCHQIQTALEDESQSNSDSSTAESSEDGCIKKLRTESTGPDGHKKRKKRIRRTVMRRVPPTDAEMQPNRARFKKYNVWASALQEDALSENMRGCDVTRSGRDRNVENYDFSLRYRLNGENTLKRRLSNSSEDGGECSHPAHKRGRPSSRPITGNQQRGLVKSRTGHRSRRGTSSASGSSDFCEPRHILDLNEVGERDPSDVATEMASKLYEEKDELLVRVVEVLGIDVCLELYKETQRIEADGGMMIKNGIRRRTPGGVFLFLIKHHDNITQEQQKRIFSEDRQSLSKSRKQIETLMRDRKVEELKKCLSKQVTELPTLNQRKEYYMQGDEQSEDKQPGSLSNPPPSPVGAEQEHDSPEYRTHEININLVDNAELPSTSKAAAAAQGAPLKDLISYDHDFLDVNCGDMDFF
With B8, the binding result is “binds”.

B9: Elongation factor 1-gamma (protein, UniProt Q9NJH0 1-431)
chain: MVKGTLYTYPENFRAYKALIAAQYSGAQVKVADNFKFGETNKSAEFLKKFPGGKVPAFETAEGQYLSESNAIAYLLANEQLRGGKCPFVQAQVQQWISFADNEIVPASCAWVFPLLGILPQQKNSTAKQEAEAVLQQLNQKLQDATFLAGERITLADIVVFSSLLHLYEYVLEPSVRSAFGNVNRWFVTILNQKQVQAVVKDYKLCEKALVFDPKKYAEFQAKTGAAKPQQQAQQQKQEKKPKEKKEAPKKAAEPAEELDAADEALAAEPKSKDPFDALPKGTFNFDDFKRVYSNEDEAKSIPYFFDKFDAENYSIWFGEYKYNEELSKVFMSCNLITGMFQRLDKMRKAAFASVCLFGEDGNSTISGIWVWRGQDLAFTLSPDWQIDYEVYDWKKLDAKSEETKKLVTQYFSWSGTDKDGRKFNQGKIFK
With B9, the binding entry is “binds”.
